Measured values from the supplement of paper PMC10849652.
Some of the results follow.

Protein sequences, listed by entry. Tags and fused reporters are not part of them. Lines headed by an entry give the natural chain unless they say otherwise; changes in a name come on top.
UniProt P68400, whole entry, looked up: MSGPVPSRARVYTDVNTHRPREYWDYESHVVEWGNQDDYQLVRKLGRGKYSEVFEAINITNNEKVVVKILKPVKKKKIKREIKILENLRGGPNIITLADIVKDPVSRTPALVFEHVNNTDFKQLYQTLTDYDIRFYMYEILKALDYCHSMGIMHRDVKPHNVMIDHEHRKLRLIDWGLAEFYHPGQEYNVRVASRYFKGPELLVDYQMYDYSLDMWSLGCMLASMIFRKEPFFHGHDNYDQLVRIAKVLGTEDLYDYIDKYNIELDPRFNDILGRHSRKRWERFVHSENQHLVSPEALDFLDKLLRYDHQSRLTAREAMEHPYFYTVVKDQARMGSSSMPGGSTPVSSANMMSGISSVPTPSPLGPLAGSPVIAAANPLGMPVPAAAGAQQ
UniProt Q99627: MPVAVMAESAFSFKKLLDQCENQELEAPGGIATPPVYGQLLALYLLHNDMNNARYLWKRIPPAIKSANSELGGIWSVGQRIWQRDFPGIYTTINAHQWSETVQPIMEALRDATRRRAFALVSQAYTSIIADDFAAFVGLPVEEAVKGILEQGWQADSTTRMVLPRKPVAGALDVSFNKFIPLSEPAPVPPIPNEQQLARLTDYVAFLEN
UniProt P19784, whole entry, looked up: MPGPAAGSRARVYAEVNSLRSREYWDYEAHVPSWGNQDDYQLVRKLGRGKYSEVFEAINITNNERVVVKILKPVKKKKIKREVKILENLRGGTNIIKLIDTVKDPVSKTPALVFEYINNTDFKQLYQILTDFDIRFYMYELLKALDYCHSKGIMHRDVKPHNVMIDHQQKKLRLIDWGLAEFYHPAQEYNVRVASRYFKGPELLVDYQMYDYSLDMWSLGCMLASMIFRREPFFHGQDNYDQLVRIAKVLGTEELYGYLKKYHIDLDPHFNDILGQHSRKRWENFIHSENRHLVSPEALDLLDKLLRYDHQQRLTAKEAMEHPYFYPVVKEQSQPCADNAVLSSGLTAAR
UniProt P24311, whole entry, looked up: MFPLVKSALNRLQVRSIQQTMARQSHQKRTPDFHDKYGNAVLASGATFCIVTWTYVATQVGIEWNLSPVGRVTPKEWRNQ
UniProt Q92828: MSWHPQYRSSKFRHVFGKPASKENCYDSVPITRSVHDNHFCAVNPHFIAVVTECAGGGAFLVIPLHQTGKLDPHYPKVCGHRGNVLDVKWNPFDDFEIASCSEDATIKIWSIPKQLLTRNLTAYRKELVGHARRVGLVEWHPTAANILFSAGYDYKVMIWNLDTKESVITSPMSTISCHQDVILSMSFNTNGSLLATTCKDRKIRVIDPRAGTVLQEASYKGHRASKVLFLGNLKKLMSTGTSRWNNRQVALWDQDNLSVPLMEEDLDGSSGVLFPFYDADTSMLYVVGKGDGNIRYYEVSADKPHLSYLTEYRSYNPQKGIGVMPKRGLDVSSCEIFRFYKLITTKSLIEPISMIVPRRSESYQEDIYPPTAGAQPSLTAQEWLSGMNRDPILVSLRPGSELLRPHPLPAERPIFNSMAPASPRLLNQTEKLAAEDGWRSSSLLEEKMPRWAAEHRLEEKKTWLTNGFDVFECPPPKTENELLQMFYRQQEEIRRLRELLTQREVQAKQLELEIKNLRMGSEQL
UniProt P46108: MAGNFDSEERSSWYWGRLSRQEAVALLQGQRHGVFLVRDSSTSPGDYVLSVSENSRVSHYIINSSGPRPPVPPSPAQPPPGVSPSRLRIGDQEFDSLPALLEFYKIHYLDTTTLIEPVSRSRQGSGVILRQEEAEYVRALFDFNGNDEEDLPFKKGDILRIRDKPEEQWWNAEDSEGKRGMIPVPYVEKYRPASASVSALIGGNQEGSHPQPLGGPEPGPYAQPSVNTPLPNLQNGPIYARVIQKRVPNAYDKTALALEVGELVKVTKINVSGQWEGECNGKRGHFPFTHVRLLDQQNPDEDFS
UniProt P10606, whole entry, looked up: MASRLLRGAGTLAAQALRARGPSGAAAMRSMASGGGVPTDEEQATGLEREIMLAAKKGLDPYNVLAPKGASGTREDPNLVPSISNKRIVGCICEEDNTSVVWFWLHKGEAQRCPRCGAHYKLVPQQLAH
UniProt O75575: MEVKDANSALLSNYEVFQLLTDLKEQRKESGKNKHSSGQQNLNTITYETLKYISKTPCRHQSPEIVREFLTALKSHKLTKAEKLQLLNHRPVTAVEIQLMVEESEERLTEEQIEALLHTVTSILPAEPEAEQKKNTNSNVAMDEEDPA
UniProt Q53ET0: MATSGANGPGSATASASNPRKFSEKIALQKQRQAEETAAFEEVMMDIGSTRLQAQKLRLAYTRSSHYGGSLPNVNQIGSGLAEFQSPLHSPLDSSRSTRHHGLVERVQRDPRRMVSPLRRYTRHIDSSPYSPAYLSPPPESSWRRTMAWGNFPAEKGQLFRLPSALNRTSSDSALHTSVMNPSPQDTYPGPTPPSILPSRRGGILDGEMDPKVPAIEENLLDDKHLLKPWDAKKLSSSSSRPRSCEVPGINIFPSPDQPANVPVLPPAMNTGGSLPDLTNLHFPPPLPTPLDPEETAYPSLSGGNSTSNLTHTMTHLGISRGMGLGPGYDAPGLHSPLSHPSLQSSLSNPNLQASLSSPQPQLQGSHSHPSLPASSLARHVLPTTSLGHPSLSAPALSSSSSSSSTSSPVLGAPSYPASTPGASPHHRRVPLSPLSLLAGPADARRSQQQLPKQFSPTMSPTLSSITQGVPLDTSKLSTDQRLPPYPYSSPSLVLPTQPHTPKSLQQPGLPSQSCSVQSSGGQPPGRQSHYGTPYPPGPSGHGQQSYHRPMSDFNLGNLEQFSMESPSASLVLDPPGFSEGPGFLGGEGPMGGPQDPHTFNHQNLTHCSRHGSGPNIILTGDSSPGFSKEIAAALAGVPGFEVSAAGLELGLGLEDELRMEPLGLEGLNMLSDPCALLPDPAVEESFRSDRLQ
UniProt Q9Y646: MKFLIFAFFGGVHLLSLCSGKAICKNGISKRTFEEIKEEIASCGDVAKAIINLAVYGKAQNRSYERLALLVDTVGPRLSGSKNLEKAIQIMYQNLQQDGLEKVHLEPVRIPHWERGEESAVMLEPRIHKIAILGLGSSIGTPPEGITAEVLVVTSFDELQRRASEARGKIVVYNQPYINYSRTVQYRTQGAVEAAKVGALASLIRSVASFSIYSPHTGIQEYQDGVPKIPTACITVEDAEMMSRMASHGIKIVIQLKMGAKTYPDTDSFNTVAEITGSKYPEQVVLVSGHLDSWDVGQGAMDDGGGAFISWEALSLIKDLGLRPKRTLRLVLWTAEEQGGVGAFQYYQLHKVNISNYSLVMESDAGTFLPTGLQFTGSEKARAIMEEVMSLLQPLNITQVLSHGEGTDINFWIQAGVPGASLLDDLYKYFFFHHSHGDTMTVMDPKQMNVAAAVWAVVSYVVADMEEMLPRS
UniProt Q16630, whole entry, looked up: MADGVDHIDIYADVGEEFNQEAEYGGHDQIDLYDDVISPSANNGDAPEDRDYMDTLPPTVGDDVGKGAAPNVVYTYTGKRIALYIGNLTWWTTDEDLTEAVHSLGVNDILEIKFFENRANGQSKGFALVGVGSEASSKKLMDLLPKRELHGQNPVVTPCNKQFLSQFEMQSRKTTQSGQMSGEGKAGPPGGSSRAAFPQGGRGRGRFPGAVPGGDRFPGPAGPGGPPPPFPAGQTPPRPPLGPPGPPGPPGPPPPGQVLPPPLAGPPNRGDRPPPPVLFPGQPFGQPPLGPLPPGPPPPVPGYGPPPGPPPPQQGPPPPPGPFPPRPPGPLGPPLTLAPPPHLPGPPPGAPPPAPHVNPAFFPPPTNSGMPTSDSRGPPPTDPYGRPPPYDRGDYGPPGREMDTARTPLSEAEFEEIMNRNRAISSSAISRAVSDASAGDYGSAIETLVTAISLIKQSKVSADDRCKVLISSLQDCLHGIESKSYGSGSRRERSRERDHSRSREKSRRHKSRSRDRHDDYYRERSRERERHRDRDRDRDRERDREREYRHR
UniProt Q9UKF6: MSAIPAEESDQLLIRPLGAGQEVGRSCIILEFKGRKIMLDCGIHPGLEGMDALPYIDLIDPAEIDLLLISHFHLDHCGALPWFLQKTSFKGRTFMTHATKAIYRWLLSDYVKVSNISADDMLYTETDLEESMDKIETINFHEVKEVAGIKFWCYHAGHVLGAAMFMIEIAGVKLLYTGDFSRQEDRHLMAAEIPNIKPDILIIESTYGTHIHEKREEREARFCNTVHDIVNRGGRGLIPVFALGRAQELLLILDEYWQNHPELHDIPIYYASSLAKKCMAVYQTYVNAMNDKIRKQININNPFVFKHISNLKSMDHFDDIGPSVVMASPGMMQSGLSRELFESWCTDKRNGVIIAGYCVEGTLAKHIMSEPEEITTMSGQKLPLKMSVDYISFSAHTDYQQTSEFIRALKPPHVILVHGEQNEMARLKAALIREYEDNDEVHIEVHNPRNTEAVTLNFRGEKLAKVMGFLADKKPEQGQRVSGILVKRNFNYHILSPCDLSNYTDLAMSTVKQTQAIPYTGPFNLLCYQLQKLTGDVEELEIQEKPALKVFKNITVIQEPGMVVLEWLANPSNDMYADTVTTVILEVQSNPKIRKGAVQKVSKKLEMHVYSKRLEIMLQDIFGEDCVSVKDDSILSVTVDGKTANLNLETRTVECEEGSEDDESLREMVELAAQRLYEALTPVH
UniProt Q9UNS2: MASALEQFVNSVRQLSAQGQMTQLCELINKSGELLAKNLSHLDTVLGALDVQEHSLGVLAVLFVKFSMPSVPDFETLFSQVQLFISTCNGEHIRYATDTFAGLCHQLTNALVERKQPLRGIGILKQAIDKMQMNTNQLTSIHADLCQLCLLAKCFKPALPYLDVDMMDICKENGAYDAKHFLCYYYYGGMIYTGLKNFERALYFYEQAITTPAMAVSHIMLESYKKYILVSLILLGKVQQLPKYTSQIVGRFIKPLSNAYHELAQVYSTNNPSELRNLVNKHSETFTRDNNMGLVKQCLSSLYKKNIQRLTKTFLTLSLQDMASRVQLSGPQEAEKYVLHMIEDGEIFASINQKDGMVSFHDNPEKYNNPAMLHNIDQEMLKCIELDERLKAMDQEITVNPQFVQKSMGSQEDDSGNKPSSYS
UniProt Q7Z4G1, whole entry, looked up: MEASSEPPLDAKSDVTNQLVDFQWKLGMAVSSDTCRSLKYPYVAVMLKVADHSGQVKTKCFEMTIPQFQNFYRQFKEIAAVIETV
UniProt Q7KZN9: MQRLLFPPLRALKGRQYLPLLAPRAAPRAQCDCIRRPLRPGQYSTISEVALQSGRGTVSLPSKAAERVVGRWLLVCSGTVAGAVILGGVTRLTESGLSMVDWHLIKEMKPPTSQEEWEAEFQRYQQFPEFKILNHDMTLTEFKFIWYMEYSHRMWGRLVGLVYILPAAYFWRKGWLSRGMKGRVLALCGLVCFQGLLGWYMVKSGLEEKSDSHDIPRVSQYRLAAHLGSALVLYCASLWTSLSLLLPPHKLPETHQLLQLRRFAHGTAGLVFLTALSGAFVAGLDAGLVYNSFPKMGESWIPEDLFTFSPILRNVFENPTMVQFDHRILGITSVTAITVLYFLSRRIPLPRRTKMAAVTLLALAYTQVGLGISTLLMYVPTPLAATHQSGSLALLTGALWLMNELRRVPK
UniProt P46109: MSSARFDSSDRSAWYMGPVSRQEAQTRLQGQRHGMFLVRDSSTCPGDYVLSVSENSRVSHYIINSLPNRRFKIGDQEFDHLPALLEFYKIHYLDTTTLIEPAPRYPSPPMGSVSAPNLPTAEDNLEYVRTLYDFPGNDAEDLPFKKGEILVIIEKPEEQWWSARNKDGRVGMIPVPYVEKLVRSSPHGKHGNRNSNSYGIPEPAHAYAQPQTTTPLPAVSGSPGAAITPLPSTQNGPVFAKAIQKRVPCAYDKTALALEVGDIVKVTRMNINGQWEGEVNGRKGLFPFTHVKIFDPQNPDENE
UniProt P14854, whole entry, looked up: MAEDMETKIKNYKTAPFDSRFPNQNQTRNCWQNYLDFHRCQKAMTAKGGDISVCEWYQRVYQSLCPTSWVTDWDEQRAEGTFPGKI
UniProt Q49AN0: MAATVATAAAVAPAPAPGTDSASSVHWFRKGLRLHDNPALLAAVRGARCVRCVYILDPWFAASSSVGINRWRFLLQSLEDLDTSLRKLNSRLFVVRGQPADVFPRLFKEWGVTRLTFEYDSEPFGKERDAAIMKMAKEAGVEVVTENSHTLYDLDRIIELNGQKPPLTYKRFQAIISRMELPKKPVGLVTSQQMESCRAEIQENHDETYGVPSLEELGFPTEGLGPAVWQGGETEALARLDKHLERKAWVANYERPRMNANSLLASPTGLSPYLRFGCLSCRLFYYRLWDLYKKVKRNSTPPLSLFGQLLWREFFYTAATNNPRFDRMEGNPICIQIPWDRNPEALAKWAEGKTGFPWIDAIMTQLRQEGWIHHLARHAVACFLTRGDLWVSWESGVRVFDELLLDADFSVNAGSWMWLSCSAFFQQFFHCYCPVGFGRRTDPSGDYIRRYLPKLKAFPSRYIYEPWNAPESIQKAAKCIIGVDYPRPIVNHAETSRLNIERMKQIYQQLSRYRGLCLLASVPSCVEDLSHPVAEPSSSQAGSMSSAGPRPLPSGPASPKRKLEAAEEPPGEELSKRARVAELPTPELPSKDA
UniProt P29762, whole entry, looked up: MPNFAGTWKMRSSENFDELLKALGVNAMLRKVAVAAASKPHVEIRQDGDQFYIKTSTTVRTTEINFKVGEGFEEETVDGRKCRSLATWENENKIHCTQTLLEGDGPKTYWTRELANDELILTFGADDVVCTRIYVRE

What was measured:
Assay in all cases: log2 fold change, soluble protein after heating vs DMSO (PISA); higher = thermal stabilisation; K562 cells, 10 uM, 30 min; active = over 0.2 and 3.5 SD of the protein, either way, in both replicates (recomputed)
[1] = compound: CC[C@@H]1C(=O)N(C)c2cnc(Nc3ccc(C(=O)NC4CCN(C)CC4)cc3OC)nc2N1C1CCCC1
In short: (§1)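 For each measurement, 10 μM compound was applied for 30 min to K562 cells at 2×10^6 cells/mL. Aliquots were heated for 3 min across 48°C-58°C, pooled, and extracted in PBS with 0.5% NP-40 at 4°C; the supernatant after 21,000xg for 90 min was soluble protein. This was quantified by TMTpro 16plex LC-MS/MS with channel sums equalised, and thermal stability was reported relative to control samples from duplicates, on a log2 fold-change scale.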

volasertib = compound: CC[C@@H]1C(=O)N(C)c2cnc(Nc3ccc(C(=O)N[C@H]4CC[C@H](N5CCN(CC6CC6)CC5)CC4)cc3OC)nc2N1C(C)C [volasertib]
In short: as §1

[2] = compound: CC[C@H](C)N1C=C(C2=C(C=C(C=C21)C3=CN=C(C=C3)N4CCNCC4)C(=O)NCC5=C(C=C(NC5=O)C)C)C
In short: as §1

epoxomicin = compound: CC[C@H](C)[C@@H](C(=O)N[C@@H]([C@@H](C)O)C(=O)N[C@@H](CC(C)C)C(=O)[C@]1(CO1)C)NC(=O)[C@H]([C@@H](C)CC)N(C)C(=O)C [epoxomicin]
In short: as §1

[3] = compound: CCn1cc(-c2ccnc3[nH]c(-c4cccc(CN(C)C)c4)cc23)c(-c2ccc(NC(=O)N(C)C)cc2)n1
In short: as §1

[4] = compound: CN(C)CC(=O)Nc1ccc2[nH]c(=O)c3ccccc3c2c1
In short: as §1

[5] = compound: CN1C2=C(C3=C1C(=O)N(N=C3)CC4=CC(=CC=C4)N)SC(=C2)S(=O)C
In short: as §1

[6] = compound: CN1CCC(CNc2ccc3ncc(-c4cccc(OC(F)(F)F)c4)n3n2)CC1
In short: as §1

[7] = compound: CCn1c(C(=O)N(C2CC2)C2CC2)cc2c3c(ncn3C)c(Nc3cc(C)n(C)n3)nc21
In short: as §1

rosiglitazone = compound: CN(CCOC1=CC=C(C=C1)C[C@H]2C(=O)NC(=O)S2)C3=CC=CC=N3 (racemic) [rosiglitazone]
In short: as §1

## CSNK2A1 (UniProt P68400)
[1]
  log2 fold change: inactive: 0.007
volasertib
  log2 fold change: inactive: 0.04
[2]
  log2 fold change: inactive: 0.002
epoxomicin
  log2 fold change: inactive: -0.012
[3]
  log2 fold change: inactive: -0.117
[4]
  log2 fold change: inactive: -0.007
[5]
  log2 fold change: inactive: -0.04
[6]
  log2 fold change: inactive: -0.233

## COPS8 (UniProt Q99627)
[1]
  log2 fold change: inactive: -0.018
volasertib
  log2 fold change: inactive: 0.043
[2]
  log2 fold change: inactive: 0.032
epoxomicin
  log2 fold change: inactive: -0.047
[3]
  log2 fold change: inactive: 0.013
[4]
  log2 fold change: inactive: 0.033
[5]
  log2 fold change: inactive: 0.011
[6]
  log2 fold change: inactive: 0.113

## COL6A1 (UniProt P12109)
[1]
  log2 fold change: inactive: 0.097
volasertib
  log2 fold change: inactive: 0.021
[2]
  log2 fold change: inactive: 0.241
[7]
  log2 fold change: inactive: 0.044
[3]
  log2 fold change: inactive: 0.363
[4]
  log2 fold change: inactive: 0.039
rosiglitazone
  log2 fold change: inactive: 0.148
[5]
  log2 fold change: inactive: 0.256
[6]
  log2 fold change: inactive: -0.218

## CSNK2A2 (UniProt P19784)
[1]
  log2 fold change: inactive: -0.053
volasertib
  log2 fold change: inactive: -0.122
[2]
  log2 fold change: inactive: 0.028
epoxomicin
  log2 fold change: inactive: 0.029
[3]
  log2 fold change: inactive: -0.043
[4]
  log2 fold change: inactive: -0.006
[5]
  log2 fold change: inactive: -0.038
[6]
  log2 fold change: active: -0.244

## COX7B (UniProt P24311)
[1]
  log2 fold change: inactive: -0.011
volasertib
  log2 fold change: inactive: 0.024
[2]
  log2 fold change: inactive: -0.052
epoxomicin
  log2 fold change: inactive: 0.023
[3]
  log2 fold change: inactive: -0.035
[4]
  log2 fold change: inactive: 0.04
[5]
  log2 fold change: inactive: 0.015
[6]
  log2 fold change: active: 0.323

## CORO2A (UniProt Q92828)
[1]
  log2 fold change: inactive: 0.164
volasertib
  log2 fold change: inactive: -0.075
[2]
  log2 fold change: inactive: 0.01
[3]
  log2 fold change: inactive: 0
[4]
  log2 fold change: inactive: -0.038
[5]
  log2 fold change: inactive: -0.022
[6]
  log2 fold change: inactive: -0.096

## CRK (UniProt P46108)
[1]
  log2 fold change: inactive: -0.059
volasertib
  log2 fold change: inactive: -0.085
[2]
  log2 fold change: inactive: 0.005
epoxomicin
  log2 fold change: inactive: 0.026
[3]
  log2 fold change: inactive: -0.039
[4]
  log2 fold change: inactive: 0.002
[5]
  log2 fold change: inactive: -0.028
[6]
  log2 fold change: inactive: -0.022

## CSNK1A1 (UniProt P48729)
[1]
  log2 fold change: inactive: -0.011
volasertib
  log2 fold change: inactive: -0.117
[2]
  log2 fold change: inactive: 0.057
epoxomicin
  log2 fold change: inactive: 0.046
[3]
  log2 fold change: inactive: 0.008
[4]
  log2 fold change: inactive: -0.179
[5]
  log2 fold change: inactive: 0.072
[6]
  log2 fold change: inactive: -0.067

## COX5B (UniProt P10606)
[1]
  log2 fold change: inactive: 0.06
volasertib
  log2 fold change: inactive: -0.02
[2]
  log2 fold change: inactive: -0.047
epoxomicin
  log2 fold change: inactive: 0.192
[3]
  log2 fold change: inactive: -0.043
[4]
  log2 fold change: inactive: -0.013
[5]
  log2 fold change: inactive: -0.037
[6]
  log2 fold change: active: 0.541

## CRCP (UniProt O75575)
[1]
  log2 fold change: inactive: 0.123
volasertib
  log2 fold change: inactive: -0.142
[2]
  log2 fold change: inactive: 0.185
epoxomicin
  log2 fold change: inactive: 0.267
[3]
  log2 fold change: inactive: -0.005
rosiglitazone
  log2 fold change: inactive: -0.105
[5]
  log2 fold change: inactive: -0.036
[6]
  log2 fold change: inactive: 0.089

## CRTC2 (UniProt Q53ET0)
[1]
  log2 fold change: inactive: 0.014
volasertib
  log2 fold change: inactive: 0.016
[2]
  log2 fold change: inactive: 0.061
epoxomicin
  log2 fold change: inactive: 0.098
[4]
  log2 fold change: inactive: -0.009

## CPQ (UniProt Q9Y646)
[1]
  log2 fold change: inactive: -0.144
volasertib
  log2 fold change: active: -0.27
[2]
  log2 fold change: inactive: -0.036
epoxomicin
  log2 fold change: inactive: 0.062
[3]
  log2 fold change: inactive: -0.039
[4]
  log2 fold change: inactive: -0.021
[5]
  log2 fold change: inactive: 0.032
[6]
  log2 fold change: inactive: -0.035

## COQ2 (UniProt Q96H96)
[1]
  log2 fold change: inactive: -0.092
epoxomicin
  log2 fold change: inactive: -1.35
[7]
  log2 fold change: inactive: -0.02

## CPSF6 isoform 2 (UniProt Q16630)
[1]
  log2 fold change: inactive: 0.016
volasertib
  log2 fold change: inactive: 0.02
[2]
  log2 fold change: inactive: 0.016
epoxomicin
  log2 fold change: inactive: -0.014
[3]
  log2 fold change: inactive: -0.036
[4]
  log2 fold change: inactive: -0.062
[5]
  log2 fold change: inactive: 0.004
[6]
  log2 fold change: inactive: -0.014

## CPSF3 (UniProt Q9UKF6)
[1]
  log2 fold change: inactive: -0.105
volasertib
  log2 fold change: active: -0.252
[2]
  log2 fold change: inactive: 0.043
epoxomicin
  log2 fold change: inactive: -0.013
[3]
  log2 fold change: inactive: -0.008
[4]
  log2 fold change: inactive: 0.033
[5]
  log2 fold change: inactive: -0.032
[6]
  log2 fold change: inactive: 0.003

## COPS3 isoform 2 (UniProt Q9UNS2)
[1]
  log2 fold change: inactive: 0.079
volasertib
  log2 fold change: inactive: 0.031
[2]
  log2 fold change: inactive: 0.001
epoxomicin
  log2 fold change: inactive: 0.059
[3]
  log2 fold change: inactive: -0.075
[4]
  log2 fold change: inactive: -0.165
[6]
  log2 fold change: inactive: -0.124

## COMMD6 isoform 2 (UniProt Q7Z4G1)
[1]
  log2 fold change: inactive: 0.175
epoxomicin
  log2 fold change: inactive: 0.33
[7]
  log2 fold change: inactive: 0.083
[3]
  log2 fold change: inactive: -0.439
[4]
  log2 fold change: inactive: 0.009
[6]
  log2 fold change: inactive: -0.211

## CRLS1 (UniProt Q9UJA2)
[1]
  log2 fold change: inactive: 0.029
volasertib
  log2 fold change: inactive: 0.026
[2]
  log2 fold change: inactive: 0.001
[3]
  log2 fold change: inactive: 0.052
[4]
  log2 fold change: inactive: -0.024
[5]
  log2 fold change: inactive: -0.006
[6]
  log2 fold change: inactive: 0.09

## COL6A3 (UniProt P12111)
[1]
  log2 fold change: inactive: -0.281
volasertib
  log2 fold change: inactive: 0.252
epoxomicin
  log2 fold change: inactive: -0.133
[7]
  log2 fold change: inactive: 0.013
[3]
  log2 fold change: inactive: -0.064
[6]
  log2 fold change: inactive: 0.093

## COX15 (UniProt Q7KZN9)
[1]
  log2 fold change: inactive: 0.057
volasertib
  log2 fold change: inactive: 0.023
[2]
  log2 fold change: inactive: -0.037
epoxomicin
  log2 fold change: inactive: -0.018
[3]
  log2 fold change: inactive: 0.021
[4]
  log2 fold change: inactive: 0.006
[5]
  log2 fold change: inactive: -0.044
[6]
  log2 fold change: inactive: -0.015

## CRKL (UniProt P46109)
[1]
  log2 fold change: inactive: -0.012
volasertib
  log2 fold change: inactive: -0.039
[2]
  log2 fold change: inactive: 0.007
epoxomicin
  log2 fold change: inactive: 0
[3]
  log2 fold change: inactive: 0
[4]
  log2 fold change: inactive: 0.012
[5]
  log2 fold change: inactive: 0
[6]
  log2 fold change: inactive: -0.016

## COX6B1 (UniProt P14854)
[1]
  log2 fold change: inactive: 0.036
volasertib
  log2 fold change: inactive: 0.023
[2]
  log2 fold change: inactive: -0.013
epoxomicin
  log2 fold change: inactive: 0.333
[3]
  log2 fold change: inactive: -0.014
[4]
  log2 fold change: inactive: -0.081
[5]
  log2 fold change: inactive: -0.054
[6]
  log2 fold change: inactive: 0.038

## CRY2 (UniProt Q49AN0)
[2]
  log2 fold change: inactive: 0.331
[4]
  log2 fold change: inactive: 0.046
rosiglitazone
  log2 fold change: inactive: 0.047
[5]
  log2 fold change: inactive: -0.03

## CRABP1 (UniProt P29762)
[3]
  log2 fold change: inactive: -0.4
[4]
  log2 fold change: inactive: -0.256
[6]
  log2 fold change: inactive: 0.045

## CRAT (UniProt P43155)
volasertib
  log2 fold change: inactive: -0.191

## COP1 (UniProt Q8NHY2)
volasertib
  log2 fold change: inactive: -0.054

## CR1L (UniProt Q2VPA4)
[7]
  log2 fold change: inactive: -0.036
